# PubChem BioAssay AID540276 (National Center for Advancing Translational Sciences (NCATS), 2011)
# Out of some 300,000 compounds screened, about 5,400 (1.8%) were called active. Inconclusive results, whose numbers are uncertain, are shown with a selection of clear calls. The call rests on the fitted dose curve; tested in HEK293 cells. Where the call is inconclusive, the potency comes from a doubtful curve fit.
# Assay: qHTS for inhibitors of binding or entry into cells for Marburg Virus
# Conditions: Marburg virus pseudotyped entry inhibition, cell reporter; activity change, negative = inhibition: at 37.8 µM (top of the series) unless noted
# On the % scale 0 is the no-effect control and ±100 the full control effect; potency means the concentration at half of the fitted maximal effect.
Structure (SMILES),"activity change, negative = inhibition",Potency
Cc1ccc(NC(=O)CCC(=O)N2CCOc3ccccc32)c(Cl)c1,inactive: 6.13% [at 46.1 µM],–
CCc1ccc(N(C(=O)CCC(=O)Nc2cc(C)on2)C(C(=O)NC2CCCC2)c2ccco2)cc1 (configuration not stated),–,"inconclusive: 17.8 µM [inhibitor, partial curve, poor fit]"
COc1ccc(CCNC(=O)c2cccc3c2C(=O)N(C2CCCCC2)C3)cc1OC,–,"inconclusive: 35.5 µM [inhibitor, partial curve, poor fit]"
COc1ccc(C2Nc3ccccc3-c3nnc(SC)nc3O2)cc1C (configuration not stated),inactive: -6.99% [at 46.1 µM],–
Cc1cc(-c2nnc3n2N=C(c2ccc(-c4ccccc4)cc2)CS3)n[nH]1,–,"inconclusive: 11.2 µM [inhibitor, partial curve, poor fit]"
O=C(Nc1ccccc1)OC1CC2CC1C1CCCC21 (configuration not stated),–,"inconclusive: 35.5 µM [inhibitor, single point]"
CC(C)C(=O)Nc1ccc(C(=O)NNC(=O)C(c2ccccc2)c2ccccc2)cc1,–,"inconclusive: 6.51 µM [inhibitor, partial curve, poor fit]"
COc1ccc(C(=O)Cn2nnc(-c3ccccc3NC(=O)C3CC3)n2)cc1,–,"inconclusive: 10 µM [inhibitor, partial curve, poor fit]"
CCOC(=O)C1=C(CSc2nc3c(cc2C#N)CN(C)CC3)OC(N)=C(C#N)C1c1ccc(Cl)cc1 (configuration not stated),–,"inconclusive: 15.8 µM [inhibitor, single point]"
COc1ccc(N2C(=O)C(Cl)=C(N3CCOCC3)C2=O)cc1,–,"inconclusive: 14.1 µM [inhibitor, single point]"
CCOc1cc(/C=C2\C(=O)N(CCc3ccc(OC)c(OC)c3)C(C)=C2C(=O)OC)ccc1O,inactive: 16.6%,–
C=CCn1cccc(C(=O)Nc2ccc(OC)c(OC)c2)c1=O,inactive: 26.2% [at 46.1 µM],–
CCn1c2ccc(F)cc2c2nnc(SCCN3CCCCC3)nc21,–,"inconclusive: 10 µM [inhibitor, partial curve, poor fit]"
CCOC(=O)c1cc(C#N)c(Oc2cccc(C(F)(F)F)c2)nc1-c1ccccc1,–,"inconclusive: 35.5 µM [inhibitor, single point]"
COc1ccc(-c2cc(=O)oc3cc(OCC(=O)Nc4ccc(CCO)cc4)ccc23)cc1,–,"inconclusive: 3.55 µM [inhibitor, single point]"
CSc1nnnn1-c1ccc(C)c(Cl)c1,–,"inconclusive: 0.398 µM [inhibitor, partial curve, poor fit]"
CN(Cc1ccccc1C#N)S(=O)(=O)c1cccs1,inactive: 2.21% [at 46.1 µM],–
c1ccc(C2Nc3ccccc3Oc3ccccc32)cc1 (configuration not stated),inactive: -49.1% [at 46.1 µM],–
COc1ccc(C2CC(c3ccc(Br)cc3)=NN2C(=O)c2cccnc2)cc1 (configuration not stated),–,"inconclusive: 17.8 µM [inhibitor, partial curve, poor fit]"
O=C(N/N=C/c1ccc(Br)cc1)c1ccc(F)cc1,–,"inconclusive: 35.5 µM [activator, single point]"
Cc1ccc[n+](C(C(=S)NCc2ccco2)=C([O-])c2ccccc2Cl)c1,–,"inconclusive: 22.4 µM [activator, partial curve, poor fit]"

Structure (SMILES),"activity change, negative = inhibition",Potency
CCOC(=O)c1c(NC(=O)CSc2nnc(C)s2)sc2c1CCC(C)C2 (configuration not stated),–,"inconclusive: 12.6 µM [inhibitor, single point]"
CCCOC(=O)CSc1nc(N2CCOCC2)c2c(c1C#N)CC(C)(C)OC2,–,"inconclusive: 8.91 µM [inhibitor, partial curve, poor fit]"
O=C(NCCCn1ccnc1)c1ccccc1Cl,–,"inconclusive: 15.8 µM [activator, single point]"
O=C(COc1nc2ccccc2nc1N1CCOCC1)Nc1cccc(S(=O)(=O)N2CCCCC2)c1,–,"inconclusive: 35.5 µM [inhibitor, single point]"
COc1ccccc1N(CC(=O)NCCN1CCOCC1)S(=O)(=O)c1ccc(C)cc1,–,"inconclusive: 1.12 µM [inhibitor, full curve, poor fit]"
CCOc1cc(CNCCO)cc(Br)c1OCc1ccccc1Cl,–,active: 15.8 µM
CCn1cc(C2=NOC(C(=O)Nc3ccccc3C(=O)OC)C2)c(C)n1 (configuration not stated),–,"inconclusive: 6.31 µM [inhibitor, single point]"
Cc1ccc(C(CNS(=O)(=O)c2ccc(C)cc2)N2CCN(C)CC2)cc1 (configuration not stated),–,"inconclusive: 35.5 µM [inhibitor, single point]"
Oc1ccc(/C=N/NP(=S)(c2ccccc2)c2ccccc2)cc1,–,"inconclusive: 25.9 µM [inhibitor, partial curve, poor fit]"
COc1ccccc1NC(=O)N1CCN(c2cc(-c3ccccc3)nc3ncnn23)CC1,–,"inconclusive: 20.6 µM [inhibitor, single point]"
N#CC1=C(N)OC2=C(C(=O)CCC2)C1c1cccs1 (configuration not stated),–,"inconclusive: 4.47 µM [activator, single point]"
Clc1ccccc1CNc1nc2ccccc2c2nc(-c3cccnc3)nn12,inactive: -3.52% [at 46.1 µM],–
CC(=O)Nc1ccc(S(=O)(=O)N2CCCc3ccccc32)cc1,–,"inconclusive: 0.73 µM [inhibitor, full curve]"
CCN(CC)S(=O)(=O)c1ccc(N2CCCCC2)c(NC(=O)C2=COCCO2)c1,–,"inconclusive: 25.1 µM [inhibitor, single point]"
CCOC(=O)c1c(-c2ccc(OC)cc2)csc1NC(=O)CSc1ncnc2sccc12,inactive: -33.8%,–
CC(=O)Nn1c(-c2ccccc2)cc2ccccc21,–,"inconclusive: 4.47 µM [activator, single point]"
Cc1nnn(C23CC4CC(CC(CC(=O)Nc5ccc(C)c(Cl)c5)(C4)C2)C3)n1,–,"inconclusive: 17.8 µM [inhibitor, single point]"
C=CCNC(=S)N1CCC(C(=O)c2ccc(C)cc2)CC1,inactive: -11.2% [at 46.1 µM],–
COc1ccc2cc(/C=C3\SC(=S)NC3=O)c(N3CCOCC3)nc2c1,–,active: 11.2 µM
O=C(CN1CCN(c2ccc([N+](=O)[O-])cc2)CC1)Nc1nccs1,–,"inconclusive: 35.5 µM [inhibitor, single point]"
CN(Cc1ccccc1)Cc1nc2scc(-c3ccccc3)c2c(=O)[nH]1,–,"inconclusive: 35.5 µM [inhibitor, single point]"

# Record cards (already shown). Values in the order: activity change, negative = inhibition	Potency
# Clc1ccccc1CNc1nc2ccccc2c2nc(-c3cccnc3)nn12 as listed: inactive: -3.52% [at 46.1 µM]	–
# Oc1ccc(/C=N/NP(=S)(c2ccccc2)c2ccccc2)cc1 as listed: –	inconclusive: 25.9 µM [inhibitor, partial curve, poor fit]
